At least one compound was matched to its structure with a doubt left.
Experiment: Food intake and body weight in diet-induced obese (DIO) mini-pigs, monotherapy and combination with liraglutide
Type: in vivo, Göttingen mini-pigs

In the case of `CCCCCCCCCCCCCCCC(=O)N[C@@H](CCC(=O)NCCCC[C@H](NC(=O)[C@H](C)NC(=O)[C@H](C)NC(=O)[C@H](CCC(N)=O)NC(=O)CNC(=O)[C@H](CCC(=O)O)NC(=O)[C@H](CC(C)C)NC(=O)[C@H](Cc1ccc(O)cc1)NC(=O)[C@H](CO)NC(=O)[C@H](CO)NC(=O)[C@@H](NC(=O)[C@H](CC(=O)O)NC(=O)[C@H](CO)NC(=O)[C@@H](NC(=O)[C@H](Cc1ccccc1)NC(=O)[C@@H](NC(=O)CNC(=O)[C@H](CCC(=O)O)NC(=O)[C@H](C)NC(=O)[C@@H](N)Cc1cnc[nH]1)[C@@H](C)O)[C@@H](C)O)C(C)C)C(=O)N[C@@H](CCC(=O)O)C(=O)N[C@@H](Cc1ccccc1)C(=O)N[C@H](C(=O)N[C@@H](C)C(=O)N[C@@H](Cc1c[nH]c2ccccc12)C(=O)N[C@@H](CC(C)C)C(=O)N[C@H](C(=O)N[C@@H](CCCNC(=N)N)C(=O)NCC(=O)N[C@@H](CCCNC(=N)N)C(=O)NCC(=O)O)C(C)C)[C@@H](C)CC)C(=O)O` [Liraglutide, reference compound], the “Mean daily food intake” value (Day 31-49, liraglutide alone) is reported as 0.66 kg and the “Average BW” value (Day 59, last BW before add on (liraglutide monotherapy)) is reported as 90.2.

Reference: patent US20170008928A1, “NOVEL PEPTIDES AND PEPTIDE DERIVATIVES AND USES THEREOF” (Novo Nordisk A/S, priority 2015, published 2017)
